Values of other authors in patent US20110091574A1, “TREATMENT OF ADENOCARCINOMA EXPRESSING LKB1 WITH MTOR INHIBITOR IN COMBINATION WITH COX2 INHIBITOR” (Catholic Healthcare West, priority 2008, published 2011).
For at least one compound, name, drawing or mass did not settle the structure.

System: colon carcinoma
Conditions: high doses, e.g. 400 mg once daily, or 200 mg or 400 mg twice daily; cited from earlier work

In the case of Cc1ccc(-c2cc(C(F)(F)F)nn2-c2ccc(S(N)(=O)=O)cc2)cc1 [celecoxib], the “efficacy in preventing colon carcinoma” value is listed as “shown efficacy in preventing colon carcinoma”.
